Where “and” joins values, the source holds several entries; their conditions need not be identical. Identical values can stand only once. Entries after “also recorded” stand apart in the source; their conditions may differ. Not every detail of the peptide structures is certain; ends, links or a residue may be inferred.
Tests used:
[1] = Polymerization kinetics of selected peptide alone (ThT spectrofluorimetry); assay type: physicochemical; conditions: 310 μM, ThT fluorescence
Experimental: After thawing, a pre-dilution of the peptides of interest in sterile water was carried out in order to obtain, for each peptide, a solution at a concentration close to the working concentration. The peptides were then left to incubate at 4° C. overnight. On the day of the experiment, the peptide solutions were sonicated for 10 minutes, left to stand for one hour at room temperature, sonicated again for 10 minutes and assayed spectrophotometrically at 280 nm (8=1450 M^−1cm^−1). The UV spectra were previously normalized to 0 at 300 nm. The solutions were prepared at concentrations of peptides ¼ above that desired in the end. The polymerization of VQIVYK was initiated by adding ¼ of the volume of fibrillation buffer 5× for a final concentration of fibrillation buffer 1× (10 mM MOPS, 150 mM NaCl, pH=7.2).
The analyses were carried out on a spectrofluorometer (LS 55 from Perkin Elmer) fitted with a 4-cell rack. Black quartz cells (0.2×1.0 cm) were used. […]
The results were first smoothed over 10 points with the “smooth” option of the KaleidaGraph software. […] Finally, the results of each kinetics were normalized relative to the fluorescence intensity of the 1p control after 100 minutes of polymerization considered to be 100%.

Chains of the proteins cited; added tags and fusions are not shown. Lines headed by an entry give the natural chain unless they say otherwise; changes in a name come on top.
UniProt P10636: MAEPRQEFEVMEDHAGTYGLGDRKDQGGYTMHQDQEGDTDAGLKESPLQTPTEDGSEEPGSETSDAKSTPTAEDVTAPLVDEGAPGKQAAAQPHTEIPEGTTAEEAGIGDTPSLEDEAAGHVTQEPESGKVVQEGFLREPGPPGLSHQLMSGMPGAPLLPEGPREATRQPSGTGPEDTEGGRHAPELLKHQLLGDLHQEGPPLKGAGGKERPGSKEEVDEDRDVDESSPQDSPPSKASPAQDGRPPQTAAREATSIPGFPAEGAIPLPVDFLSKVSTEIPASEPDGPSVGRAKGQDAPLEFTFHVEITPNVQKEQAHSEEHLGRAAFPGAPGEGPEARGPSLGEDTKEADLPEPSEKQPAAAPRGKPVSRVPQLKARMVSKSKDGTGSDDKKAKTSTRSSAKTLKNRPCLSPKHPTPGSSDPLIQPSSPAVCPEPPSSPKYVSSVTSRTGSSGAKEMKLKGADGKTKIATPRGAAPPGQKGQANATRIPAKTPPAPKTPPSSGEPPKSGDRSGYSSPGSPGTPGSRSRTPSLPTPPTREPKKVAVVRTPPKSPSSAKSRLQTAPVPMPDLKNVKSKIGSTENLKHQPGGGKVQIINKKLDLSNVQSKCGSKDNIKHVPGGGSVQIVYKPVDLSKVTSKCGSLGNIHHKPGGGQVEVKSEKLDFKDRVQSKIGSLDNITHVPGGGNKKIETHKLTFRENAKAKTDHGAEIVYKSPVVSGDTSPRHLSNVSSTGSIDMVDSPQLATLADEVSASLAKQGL

[2] = Determination of the amyloidogenic character of the peptides by Thioflavin T fluorescence; assay type: physicochemical; conditions: ThT fluorescence, Garnier-Delamarche representation
Experimental: After thawing, a pre-dilution in milli Q H2O filtered through 0.2 μm was carried out in order to obtain a solution at a concentration close to the working concentration, greater than 1.25 times. This stock solution was left to incubate for 1 hour in a water bath at 25° C., and was then assayed spectrophotometrically and adjusted to the final working concentration of 1.25 times. The polymerization was initiated by adding ¼ of the volume of 5× fibrillation buffer (50 mM MOPS, 750 mM NaCl, pH=7.2) for a final concentration of 1× fibrillation buffer (10 mM MOPS, 150 mM NaCl, PH=7.2). The samples were left to incubate for 1.5-2 hours at 25° C. in a water bath. The study of the polymerization by fluorimetry was carried out under the same conditions, except that the 5× polymerization buffer was supplemented with Thioflavin T (ThT) at 100 μM in order to be able to observe the fluorescence. • (a) Determination of the Aggregative Character of the Peptides. Once polymerized, the samples were ultracentrifuged at 100,000 g for 5 minutes at 25° C. (Beckman TL100, rotor TL-A100). The supernatants of each sample were then collected. […] The concentration of the supernatant was determined using the Beer-Lambert law A=ε×1×C; ε (peptides)=1450 M^−1cm^−1. […] The fluorescence of the sample was then measured immediately after dilution by recording a fluorescence spectrum (470 nm to 600 nm) at an excitation wavelength of 450 nm (Perkin Elmer LS 55, PM 750, slit10).
After prediction of their amyloidogenic character by bioinformatics, all the peptides were studied using biochemical techniques, namely sedimentation and fluorescence/ThT. […] At this concentration, in sedimentation, the amount of sedimentable peptide after polymerization was measured and expressed as a percentage as a function of the total concentration. […] On the other hand, the fluorescence test was used to determine their amyloidogenic character, the fluorescence value given corresponds to a normalization with respect to 1p, considering that its fluorescence is 100% (Table 4).

[3] = target: T1, PHF6 peptide (VQIVYK, 1p) (Homo sapiens, UniProt P10636); assay: Effects of the derived peptides on VQIVYK polymerization by spectrofluorimetry (ThT kinetics); assay type: biochemical; conditions: for category of polymerization kinetics of 1p in the presence of peptide / inhibitory effect on 1p (PHF6) polymerization (in words): [1p]=155 μM, [selected peptide]=310 μM; for inhibitory effect on 1p (PHF6) polymerization (in words): thresholds 50% rate, 100% fluorescence intensity; for inhibitory effect over longer times: polymerization followed for 15 hours
T1 construct: The polymerization of VQIVYK was initiated by adding ¼ of the volume of fibrillation buffer 5×

[4] = Determination of the aggregative character of the peptides by sedimentation; assay type: physicochemical; conditions: for aggregative character (in words): sedimentation, Garnier-Delamarche representation
Experimental: After thawing, a pre-dilution in milli Q H2O filtered through 0.2 μm was carried out in order to obtain a solution at a concentration close to the working concentration, greater than 1.25 times. This stock solution was left to incubate for 1 hour in a water bath at 25° C., and was then assayed spectrophotometrically and adjusted to the final working concentration of 1.25 times. The polymerization was initiated by adding ¼ of the volume of 5× fibrillation buffer (50 mM MOPS, 750 mM NaCl, pH=7.2) for a final concentration of 1× fibrillation buffer (10 mM MOPS, 150 mM NaCl, PH=7.2). The samples were left to incubate for 1.5-2 hours at 25° C. in a water bath. The study of the polymerization by fluorimetry was carried out under the same conditions, except that the 5× polymerization buffer was supplemented with Thioflavin T (ThT) at 100 μM in order to be able to observe the fluorescence. • (a) Determination of the Aggregative Character of the Peptides. Once polymerized, the samples were ultracentrifuged at 100,000 g for 5 minutes at 25° C. (Beckman TL100, rotor TL-A100). The supernatants of each sample were then collected. An assay at 280 nm in triplicate of each supernatant was then carried out in the presence of 1% SDS. The concentration of the supernatant was determined using the Beer-Lambert law A=ε×1×C; ε (peptides)=1450 M^−1cm^−1. The concentration of sedimentable species in the pellet was then deduced by the difference: “total concentration of the sample—concentration of free peptide present in the supernatant”. • (b) Determination of the Amyloidogenic Character of the Peptides. Once the peptides have polymerized as previously indicated, 40 μL of peptides polymerized at a concentration of 400 μM and 800 μM were diluted in 360 μL of Thioflavin T (10 μM ThT, 1×MOPS) in a thermostatically controlled tank of 0.2×1 cm, to a final volume of 400 μL. The fluorescence of the sample was then measured immediately after dilution by recording a fluorescence spectrum (470 nm to 600 nm) at an excitation wavelength of 450 nm (Perkin Elmer LS 55, PM 750, slit10).
After prediction of their amyloidogenic character by bioinformatics, all the peptides were studied using biochemical techniques, namely sedimentation and fluorescence/ThT. The biochemical experiments were carried out at two peptide concentrations: 400 μM and 800 μM. Only the results obtained at 800 μM are presented. At this concentration, in sedimentation, the amount of sedimentable peptide after polymerization was measured and expressed as a percentage as a function of the total concentration. […] On the other hand, the fluorescence test was used to determine their amyloidogenic character, the fluorescence value given corresponds to a normalization with respect to 1p, considering that its fluorescence is 100% (Table 4).

| Substance | polymerization of the peptide on its own [1] | amyloidogenic character (in words) [2] | category of polymerization kinetics of 1p in the presence of peptide [3] | inhibitory effect on 1p (PHF6) polymerization (in words) [3] | inhibitory effect over longer times [3] | aggregative character (in words) [4] | % sedimentation ([4]; 800 μM peptide, sedimentable peptide after polymerization as percentage of total concentration (16p and 9tp: 288 μM per FIG. 3 legend)) |
| --- | --- | --- | --- | --- | --- | --- | --- |
| Ac-VKIVYQ-NH2 [1tp, VKIVYQ] | do not polymerize on their own | weakly amyloidogenic | slow compared to 1p alone and which have a lower fluorescence intensity | inhibitory peptide; also recorded: clearly inhibited; also recorded: marked inhibitory effect; also recorded: with a strong inhibitory effect | the inhibitory effect persisted | weakly aggregative |  |
| Ac-VKIQYV-NH2 [4tp, VKIQYV] | do not polymerize on their own | weakly amyloidogenic | slow compared to 1p alone and which have a lower fluorescence intensity | marked inhibitory effect; also recorded: with a weak inhibitory effect | the inhibitory effect persisted | weakly aggregative |  |
| Ac-IQVVYK-NH2 [7tp, IQVVYK] |  | amyloidogenic |  |  |  | aggregative | ~ 85% and 77% |
